The test concerns the target human p66Shc C59S (human) (UniProt P29353). Briefly: AUC.

The source of these data is doi:10.1101/2022.04.14.487897 (bioRxiv, 2022).

Results are given in words; binding and its absence hold for the method and conditions named.

B1: human p66Shc C59S (protein, UniProt P29353-1 1-583)
chain: MDLLPPKPKYNPLRNESLSSLEEGASGSTPPEELPSPSASSLGPILPPLPGDDSPTTLSSFFPRMSNLRLANPAGGRPGSKGEPGRAADDGEGIVGAAMPDSGPLPLLQDMNKLSGGGGRRTRVEGGQLGGEEWTRHGSFVNKPTRGWLHPNDKVMGPGVSYLVRYMGCVEVLQSMRALDFNTRTQVTREAISLVCEAVPGAKGATRRRKPCSRPLSSILGRSNLKFAGMPITLTVSTSSLNLMAADCKQIIANHHMQSISFASGGDPDTAEYVAYVAKDPVNQRACHILECPEGLAQDVISTIGQAFELRFKQYLRNPPKLVTPHDRMAGFDGSAWDEEEEEPPDHQYYNDFPGKEPPLGGVVDMRLREGAAPGAARPTAPNAQTPSHLGATLPVGQPVGGDPEVRKQMPPPPPCPGRELFDDPSYVNVQNLDKARQAVGGAGPPNPAINGSAPRDLFDMKPFEDALRVPPPPQSVSMAEQLRGEPWFHGKLSRREAEALLQLNGDFLVRESTTTPGQYVLTGLQSGQPKHLLLVDPEGVVRTKDHRFESVSHLISYHMDNHLPIISAGSELCLQQPVERKL
With B1, the binding result is “no binding (tested: 8.7 μM)”.
